Test results reported in US6143719A, “Bradykinin analogs as selective thrombin inhibitors” (The Regents of the University of Michigan, priority 1996, dated 2000).
At least one peptide structure holds a part that was inferred or is arguable (an end, a ring closure or a residue).

What was measured:
platelets = assay type: cell-based, human; conditions: peptide 1 mM
Description: Fresh whole blood was collected and mixed with 0.013 M sodium citrate and platelet-rich plasma was prepared according to the method of Meloni et al., J. Biol. Chem. 266, 6786, 1991. Washed platelets were prepared by gel filtration over Sepharose 2B columns in Hepes-Tyrode's buffer (0.137 M NaCl, 3 mM KCl, 0.4 mM Na H2 PO4, 12 mM NaHCO3, 1 mM MgCl2, 14.7 mM Hepes containing 20 mM glucose and 0.2% bovine serum albumin, pH 7.35). Platelets for aggregation and secretion studies were incubated according to the method of Schmaier et al., Blood 56, 1013, 1980 with 5-[^14 C]hydroxytryptamine for 30 min at 37° C. The washed platelets (2×10^8 /ml, final concentration radiolabeled with 5-[^14 C]hydroxytryptamine) were added to a cuvette of an aggregometer (Chronolog Corp., Havertown, Pa.), standardized using the protocol of Meloni et al., supra. After the addition of ZnCl2, final concentration 50 μM, purified HK (1 μM) or various concentrations of the peptides (0.1 to 3 mM) or buffer alone was added to the cuvette. […] Percent secretion was determined by the ratio of the loss of 5-[^14 C]hydroxytryptamine in the supernatant of the agonist-treated specimen to the loss of 5-[^14 C]hydroxytryptamine in the supernatant of the platelet lysate after the value of the control supernatant (i.e., the level of 5-[^14 C]hydroxytryptamine in a unstimulated sample) was subtracted from both.

washed platelets = assay: 125I-α-thrombin binding to platelets; parameters: species or system human; conditions: peptide 1 mM
Description: Gel filtered platelets were placed into polypropylene tubes and diluted with Hepes-Tyrode's buffer, containing 2 mM CaCl2 and 50 μM ZnCl2 and additions, to a final concentration of 2×10^8 platelets/ml. The reaction was started by the addition of 1 nM ^125 I-α-thrombin, which was prepared by using the iodogen technique as reported by Meloni et al., J. Biol. Chem. 266, 6786 (1991). Incubations were performed at 37° C. for specified times with various additions. After incubation, 50 μl aliquots were removed in triplicate for each experimental point and placed in polypropylene microcentrifuge tubes with an extended tip containing 200 μl of an oil mixture which consisted of 1 part Apiezon A oil to 9 parts of n-butylphthalate (Gustafson et al., J. Clin. Invest. 78, 810 (1986)), and centrifuged at room temperature for 2 min at 10,900× g in a microcentrifuge. (Model E, Beckman Instruments, Palo Alto, Calif.) The supernatant was removed and the tips amputated for placement in the gamma counter. The radioactivity present in the cell pellet was determined with an LKB Rack Gamma Counter (LKB Instruments, Inc., Gaithersburg, Md.). Nonspecific binding was measured in the presence of a 100-fold molar excess of α-thrombin.

thrombin receptor = biological target: T1, thrombin receptor (Homo sapiens, UniProt P25116); assay: flow cytometry of thrombin receptor epitopes (SPAN12, ATAP138) on α-thrombin activated platelets; assay type: cell-based
T1 construct: endogenous in cells; host or cells: washed platelets from fresh blood
T1 sequence (P25116 22-425): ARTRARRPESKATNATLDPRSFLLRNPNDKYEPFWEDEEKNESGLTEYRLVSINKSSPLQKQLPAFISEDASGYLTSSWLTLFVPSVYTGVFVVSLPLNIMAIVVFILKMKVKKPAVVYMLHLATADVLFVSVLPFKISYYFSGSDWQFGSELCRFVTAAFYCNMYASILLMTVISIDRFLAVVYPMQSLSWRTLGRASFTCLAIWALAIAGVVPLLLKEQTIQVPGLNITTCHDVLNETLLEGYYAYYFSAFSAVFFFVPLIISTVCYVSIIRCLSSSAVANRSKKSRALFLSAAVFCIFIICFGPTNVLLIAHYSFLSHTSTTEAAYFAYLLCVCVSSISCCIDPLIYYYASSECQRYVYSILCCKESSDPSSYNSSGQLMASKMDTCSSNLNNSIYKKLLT
Description: Flow cytometry studies were performed to determine whether BK analogs prevent α-thrombin from eliminating an epitope on the thrombin receptor which is lost following α-thrombin cleavage- of the receptor. SPAN12 is an antibody to the thrombin receptor on platelets, which is specific for such an epitope. Studies were also performed to determine the effect of BK analogs on an epitope recognized by monoclonal antibody ATAP 138. The antibody is directed to an epitope on the thrombin receptor which is preserved after α-thrombin cleaves the receptor (FIGS. 7A-7D).
Monoclonal antibody SPAN12 was reared to the 12 amino acids, Asn-Ala-Thr-Leu-Asp-Pro-Arg-Ser-Phe-Leu-Leu-Arg (SEQ ID NO:2), that bridge the α-thrombin cleavage site on the thrombin receptor by the methods of Molinot et al., J. Biol. Chem. 270:ln Press, 1995. […]
Mouse IgG and an antibody to the epitope CD62 were used as controls. […] The fluorescence of bound FITC-anti-IgG to platelets was monitored on an Epics-C flow cytometer (Coulter Electronics, Hialeah, Fla.). Light scatter and fluorescence channels were set at logarithmic gain. […] Green fluorescence was observed through a 525 nm band pass filter. The relative fluorescence intensity of at least 15,000 platelets was analyzed in each sample. […]

human platelets = assay type: cell-based; conditions: FIG. 2, concentration not given
Description: The cytoplasmic free Ca^2+ concentration ([Ca^2+ ]i) was measured using the fluorescent Ca^2 + indicator fura-2 (Molecular Probes, Inc., Eugene, Oreg.). Gel filtered platelets in Hepes-Tyrode's buffer were loaded with fura-2 by incubation at 37° C. with 1 μM fura-2/acetoxymethyl ester for 45 min according to the method of Rasmussen et al., J. Biol. Chem. 268, 14322 (1993). The labeled platelets were then re-gel filtered to remove any excess probe. Aliquots of the labeled platelet suspension were transferred into a quartz cuvette with a magnetic stirrer, which was then placed in a thermostatically controlled chamber at 37° C. in a fluorescence spectrophotometer (Dual Wave Length Shimazdu SP5000 Spectrofluorometer, Shimazdu USA, Pittsburgh, Pa.). Reagents were directly added to the cuvette. The excitation wave lengths varied between 340 and 380 nm. The fluorescence was measured by recording emitted light at 510 nm as reported by Fisher et al, Mol. Pharm. 35, 195 (1989). The minimum emission was determined on a 20 mM digitonin, 10 mM EGTA solubilized platelet sample; maximum emission was determined on the same sample with 10 mM Ca^2+ added. The intraplatelet free Ca^2+ concentration was calculated by the method of Grykiewicz et al., J. Biol. Chem. 260, 3440 (1985). […]

SMILES: CC[C@H](C)[C@H](NC(=O)[C@H](CCCNC(=N)N)NC(=O)[C@H](CO)NC(=O)[C@H](CO)NC(=O)[C@H](CCCNC(=N)N)NC(=O)[C@H](Cc1ccccc1)NC(=O)[C@@H]1CCCN1C(=O)[C@H](CO)NC(=O)[C@H](Cc1ccccc1)NC(=O)CNC(=O)[C@@H]1CCCN1C(=O)[C@@H]1CCCN1C(=O)[C@H](CCCNC(=N)N)NC(=O)[C@H](CCCCN)NC(=O)[C@@H](N)CCSC)C(=O)NCC(=O)O [SEQ ID NO:14]
- inhibition of aggregation (platelets): completely inhibits
- inhibition of secretion (platelets): completely inhibits
- inhibition of 125I-α-thrombin binding to platelets (washed platelets): did not block
- removal of ATAP138 epitope by α-thrombin (thrombin receptor; FIG. 7B): blocked
- loss of SPAN12 epitope of thrombin receptor on α-thrombin activated platelets (thrombin receptor; peptide 1 mM, α-thrombin 1 nM): prevents the loss of the epitope
- inhibition of α-thrombin-induced calcium mobilization (human platelets): block
